PubChem BioAssay AID493246 | Drosophila RNAi Screening Center – 2011
Purpose: 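Identify essential fly genes by loss of cell viability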 (primary screen). Cell system: Drosophila Kc and S2R+ cells. Reagent: long dsRNA against Drosophila genes. Read-out: 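Raw, unnormalised count of remaining cells in each well; per-plate z-scores of cell number underlie the calls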. Scale: Kc cell number and S2R+ cell number: higher = more cells remaining. Call rule: 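Active when the per-plate z-score of cell number is 3 or more in the direction of fewer cells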.
The screen tested about 21,000 reagents; shown is an unselected part of those that have a named target and a result. Of all reagents, 429 (2%) were called active. 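Values are raw and not normalised between plates; calls rest on per-plate z-scores that were not deposited.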 Unmarked entries are inactive. Names joined by + are all predicted targets of the reagent. The record does not give: the amount of reagent, the time to read-out.

The opening 2 records, ahead of the listing:
{"gene":"spin (spinster)","amplicon":"DRSC07176","Kc cell number, rep 1":1.46e6,"Kc cell number, rep 2":1.47e6,"S2R+ cell number, rep 1":1.04e6,"S2R+ cell number, rep 2":1.12e6}
{"gene":"eIF4H2 (eukaryotic translation initiation factor 4H2)","amplicon":"DRSC14582","Kc cell number, rep 1":5.91e5,"S2R+ cell number, rep 1":8.43e5}

Main list, from the first entry:
{"gene":"spin (spinster)","amplicon":"DRSC07176","Kc cell number, rep 1":1.46e6,"Kc cell number, rep 2":1.47e6,"S2R+ cell number, rep 1":1.04e6,"S2R+ cell number, rep 2":1.12e6}
{"gene":"eIF4H2 (eukaryotic translation initiation factor 4H2)","amplicon":"DRSC14582","Kc cell number, rep 1":5.91e5,"S2R+ cell number, rep 1":8.43e5}
{"gene":"CG13300","amplicon":"DRSC09974","Kc cell number, rep 1":1.59e6,"Kc cell number, rep 2":1.60e6,"S2R+ cell number, rep 1":1.08e6,"S2R+ cell number, rep 2":1.06e6}
{"gene":"ATP8 (retired record)","amplicon":"DRSC21277","Kc cell number, rep 1":1.57e6,"Kc cell number, rep 2":1.65e6,"S2R+ cell number, rep 1":1.14e6,"S2R+ cell number, rep 2":1.30e6}
{"gene":"CG1698","amplicon":"DRSC06640","Kc cell number, rep 1":1.33e6,"Kc cell number, rep 2":1.35e6,"S2R+ cell number, rep 1":1.16e6,"S2R+ cell number, rep 2":1.16e6}
{"gene":"cbt (cabut)","amplicon":"DRSC00655","Kc cell number, rep 1":1.33e6,"Kc cell number, rep 2":1.27e6,"S2R+ cell number, rep 1":7.38e5,"S2R+ cell number, rep 2":8.57e5}
{"gene":"Pdk1 (Phosphoinositide-dependent kinase 1)","amplicon":"DRSC08682","Kc cell number, rep 1":1.55e6,"Kc cell number, rep 2":1.62e6,"S2R+ cell number, rep 1":9.97e5,"S2R+ cell number, rep 2":1.29e6}
{"gene":"PRL-1 (PRL-1 phosphatase)","amplicon":"DRSC03393","Kc cell number, rep 1":1.39e6,"Kc cell number, rep 2":1.53e6,"S2R+ cell number, rep 1":1.24e6,"S2R+ cell number, rep 2":1.45e6}
{"gene":"Traf4 (TNF-receptor-associated factor 4)","amplicon":"DRSC00445","Kc cell number, rep 1":1.68e6,"Kc cell number, rep 2":1.69e6,"S2R+ cell number, rep 1":1.15e6,"S2R+ cell number, rep 2":1.31e6}
{"gene":"Traf4 (TNF-receptor-associated factor 4)","amplicon":"DRSC00794","Kc cell number, rep 1":1.33e6,"Kc cell number, rep 2":1.37e6,"S2R+ cell number, rep 1":1.07e6,"S2R+ cell number, rep 2":1.19e6}
{"gene":"CG6686","amplicon":"DRSC02979","Kc cell number, rep 1":1.30e6,"Kc cell number, rep 2":1.38e6,"S2R+ cell number, rep 1":1.02e6,"S2R+ cell number, rep 2":1.09e6}
{"gene":"fl(2)d (female lethal d)","amplicon":"DRSC07620","Kc cell number, rep 1":1.60e6,"Kc cell number, rep 2":1.66e6,"S2R+ cell number, rep 1":1.13e6,"S2R+ cell number, rep 2":1.28e6}
{"gene":"CG17618 (retired record) + CG45049","amplicon":"DRSC16163","Kc cell number, rep 1":1.46e6,"Kc cell number, rep 2":1.43e6,"S2R+ cell number, rep 1":9.89e5,"S2R+ cell number, rep 2":1.09e6}
{"gene":"Cpr5C (Cuticular protein 5C)","amplicon":"DRSC18340","Kc cell number, rep 1":1.36e6,"Kc cell number, rep 2":1.42e6,"S2R+ cell number, rep 1":1.05e6,"S2R+ cell number, rep 2":1.18e6}
{"gene":"CG32081","amplicon":"DRSC09861","Kc cell number, rep 1":1.84e6,"Kc cell number, rep 2":1.69e6,"S2R+ cell number, rep 1":1.49e6,"S2R+ cell number, rep 2":1.58e6}
{"gene":"Jon65Aiii (Jonah 65Aiii)","amplicon":"DRSC10649","Kc cell number, rep 1":1.37e6,"Kc cell number, rep 2":1.48e6,"S2R+ cell number, rep 1":1.30e6,"S2R+ cell number, rep 2":1.15e6}
{"gene":"cer (crammer)","amplicon":"DRSC05992","Kc cell number, rep 1":1.53e6,"Kc cell number, rep 2":1.56e6,"S2R+ cell number, rep 1":1.14e6,"S2R+ cell number, rep 2":1.24e6}
{"gene":"RpL4 (Ribosomal protein L4)","amplicon":"DRSC16833","Kc cell number, rep 1":3.48e5,"S2R+ cell number, rep 1":5.55e5}
{"gene":"CG7794","amplicon":"DRSC16313","Kc cell number, rep 1":1.38e6,"Kc cell number, rep 2":1.35e6,"S2R+ cell number, rep 1":1.05e6,"S2R+ cell number, rep 2":1.16e6}
{"gene":"CG17242","amplicon":"DRSC00493","Kc cell number, rep 1":1.62e6,"Kc cell number, rep 2":1.67e6,"S2R+ cell number, rep 1":1.06e6,"S2R+ cell number, rep 2":1.13e6}
{"gene":"PGRP-LB (Peptidoglycan recognition protein LB)","amplicon":"DRSC14926","Kc cell number, rep 1":1.47e6,"Kc cell number, rep 2":1.51e6,"S2R+ cell number, rep 1":1.09e6,"S2R+ cell number, rep 2":1.19e6}
